Measurements taken from US20050065348A1, “Pyridin-2-yl-methylamine derivatives for treating opioid dependence” (priority 2001, published 2005).

System: morphine withdrawal syndrome (hyperalgesia)
Test: Effects on morphine dependence: naloxone-precipitated withdrawal hyperalgesia (Randall and Selitto nociceptive thresholds)
Format: in vivo
Conditions: rat; morphine 5 mg/rat/day + saline, s.c. osmotic mini-pumps 2 weeks; naloxone 0.63 mg/kg s.c.; SNK p<0.05

SMILES: CN1CC[C@]23c4c5ccc(O)c4O[C@H]2[C@@H](O)C=C[C@H]3[C@H]1C5 [morphine, Morphine chlorhydrate]
- AUC of nociceptive thresholds 30 minutes to 4 days after naloxone, morphine alone versus physiological serum: significantly weaker
